Reference: PubChem BioAssay AID1159578 (Peter MacCallum Cancer Centre, 2015)

- Screen: 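Genome-wide hunt for genes controlling movement of lymphatic endothelial cells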 (primary screen)
- System: human lymphatic endothelial cells
- Knock-down reagent: siRNA pool against human genes, 40 nM
- Duration: 48 h after transfection
- Measured: 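High-content imaging of dye-stained cells in a scratch assay measures filled wound area and nuclei per well; duplicate means given as ratio to mock and robust z-score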
- Reading the numbers: migration robust z-score: higher = faster migration into the scratch; migration relative to mock: higher = more scratch area covered than mock; nuclei per well: higher = more cells in the well
- Rule for the call: 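Migration changed when robust z exceeds 2 or falls below -2 and mean nuclei number is at least 3300; otherwise not called changed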
- Meaning of the calls: active = migration changed; inactive = no migration change, or too few cells
Here is an unselected part of about 18,000 reagents. In the full data, about 1,030 (5.7%) got an active call. 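Inactive calls also include pools with fewer than 3300 nuclei, whose migration was not assessed.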 The raw values are shown without normalisation. Reagent sequences are not shown.

no.	target	migration robust z-score	migration class with cell-count check	migration relative to mock	nuclei per well, duplicate mean	Call
1	SP6 (Sp6 transcription factor)	-0.83	migration z between -2 and 2; enough cells	0.67	5189	inactive
2	CCDC30 (coiled-coil domain containing 30)	0.09	migration z between -2 and 2; enough cells	0.9	5482	inactive
3	ZNF544 (zinc finger protein 544)	0.54	migration z between -2 and 2; enough cells	1.02	4798	inactive
4	SYT3 (synaptotagmin 3)	0.1	migration z between -2 and 2; enough cells	0.91	6550	inactive
5	NFASC (neurofascin)	0.05	migration z between -2 and 2; enough cells	0.9	5832	inactive
6	LRRC1 (leucine rich repeat containing 1)	0.06	migration z between -2 and 2; enough cells	0.9	6352	inactive
7	S100A5 (S100 calcium binding protein A5)	1.43	migration z between -2 and 2; enough cells	1.25	6226	inactive
8	MEIS1 (Meis homeobox 1)	0.31	migration z between -2 and 2; enough cells	0.86	3808	inactive
9	HDLBP (high density lipoprotein binding protein)	-1.17	migration z between -2 and 2; enough cells	0.58	4720	inactive
10	DUX4L1 (double homeobox 4 like 1 (pseudogene))	1.56	migration z between -2 and 2; enough cells	1.29	7028	inactive
11	CEMIP (cell migration inducing hyaluronidase 1)	1.64	migration z between -2 and 2; enough cells	1.31	5376	inactive
12	IRF4 (interferon regulatory factor 4)	0.26	migration z between -2 and 2; enough cells	0.86	5871	inactive
13	VIPAS39	0.4	migration z between -2 and 2; enough cells	0.99	5627	inactive
14	NFAM1 (NFAT activating protein with ITAM motif 1)	0.99	migration z between -2 and 2; enough cells	1.14	4354	inactive
15	VGLL4 (vestigial like family member 4)	0.6	migration z between -2 and 2; enough cells	1.04	5611	inactive
16	BLVRA (biliverdin reductase A)	0.75	migration z between -2 and 2; enough cells	0.95	6498	inactive
17	SUV39H2 (SUV39H2 histone lysine methyltransferase)	-0.68	migration z between -2 and 2; enough cells	0.68	4495	inactive
18	ACVR2A (activin A receptor type 2A)	-0.28	migration z between -2 and 2; enough cells	0.75	5476	inactive
19	RAI1 (retinoic acid induced 1)	1.05	migration z between -2 and 2; enough cells	1.16	5822	inactive
20	KRT24 (keratin 24)	0.06	migration z between -2 and 2; enough cells	0.9	6740	inactive
21	TSPAN17 (tetraspanin 17)	0.65	migration z between -2 and 2; enough cells	0.93	6290	inactive
22	PSMG1 (proteasome assembly chaperone 1)	0.14	migration z between -2 and 2; enough cells	0.92	5898	inactive
23	PLPBP (pyridoxal phosphate binding protein)	-2.02	migration z below -2; enough cells	0.42	4098	active
24	RSPO1 (R-spondin 1)	-2.06	migration z below -2; enough cells	0.36	6760	active
25	KRTAP19-2 (keratin associated protein 19-2)	-0.36	migration z between -2 and 2; enough cells	0.8	6957	inactive
26	DPP4 (dipeptidyl peptidase 4)	0.57	migration z between -2 and 2; enough cells	0.92	6945	inactive
27	SLC4A10	0.75	migration z between -2 and 2; enough cells	0.95	5868	inactive
28	CLSPN (claspin)	0.23	migration z between -2 and 2; enough cells	0.94	4080	inactive
29	CFD (complement factor D)	0.42	migration z between -2 and 2; enough cells	0.88	6457	inactive
30	NGFR (nerve growth factor receptor)	-0.08	migration z between -2 and 2; enough cells	0.86	6937	inactive
31	CAMK2N2 (calcium/calmodulin dependent protein kinase II inhibitor 2)	0.05	migration z between -2 and 2; enough cells	0.9	4993	inactive
32	PRPF8 (pre-mRNA processing factor 8)	0.38	migration z between -2 and 2; enough cells	0.99	4834	inactive
33	NPAS1 (neuronal PAS domain protein 1)	2.02	migration z above 2; enough cells	1.19	6027	active
34	CHEK1 (checkpoint kinase 1)	-2.21	under 3300 nuclei; migration not judged	0.38	3085	inactive
35	AFM (afamin)	0.11	migration z between -2 and 2; enough cells	0.91	5479	inactive
36	APBA1 (amyloid beta precursor protein binding family A member 1)	1.3	migration z between -2 and 2; enough cells	1.23	5992	inactive
37	STAC (SH3 and cysteine rich domain)	0.96	migration z between -2 and 2; enough cells	1.14	5864	inactive
38	PIK3R1 (phosphoinositide-3-kinase regulatory subunit 1)	0.78	migration z between -2 and 2; enough cells	0.96	5730	inactive
39	ZXDC (ZXD family zinc finger C)	-1.35	migration z between -2 and 2; enough cells	0.53	3478	inactive
40	ITLN1 (intelectin 1)	-0.2	migration z between -2 and 2; enough cells	0.83	6827	inactive
41	FGFBP3 (fibroblast growth factor binding protein 3)	0.55	migration z between -2 and 2; enough cells	1.03	5820	inactive
42	GABARAPL2 (GABA type A receptor associated protein like 2)	0.22	migration z between -2 and 2; enough cells	0.94	6292	inactive
43	ANKRD44 (ankyrin repeat domain 44)	-0.27	migration z between -2 and 2; enough cells	0.82	3930	inactive
44	AIFM3 (AIF family member 3)	-0.18	migration z between -2 and 2; enough cells	0.77	4284	inactive
45	IDO1 (indoleamine 2,3-dioxygenase 1)	0.16	migration z between -2 and 2; enough cells	0.84	5394	inactive
46	LYPD6B (LY6/PLAUR domain containing 6B)	1.1	migration z between -2 and 2; enough cells	1.17	5152	inactive
47	ZBP1 (Z-DNA binding protein 1)	-1.01	migration z between -2 and 2; enough cells	0.62	5507	inactive
48	WDR89 (WD repeat domain 89)	-0.21	migration z between -2 and 2; enough cells	0.82	6210	inactive
49	SLC17A9	-0.92	migration z between -2 and 2; enough cells	0.64	4804	inactive
50	OR2L2 (olfactory receptor family 2 subfamily L member 2)	-0.1	migration z between -2 and 2; enough cells	0.86	3988	inactive
51	NUP37 (nucleoporin 37)	-0.22	migration z between -2 and 2; enough cells	0.83	5692	inactive
52	RNPS1 (RNA binding protein with serine rich domain 1)	0.39	migration z between -2 and 2; enough cells	0.98	4714	inactive
53	AURKAIP1 (aurora kinase A interacting protein 1)	1.12	migration z between -2 and 2; enough cells	1.02	5764	inactive
54	IL6ST (interleukin 6 cytokine family signal transducer)	-0.78	migration z between -2 and 2; enough cells	0.66	7139	inactive
55	THBD (thrombomodulin)	0.42	migration z between -2 and 2; enough cells	0.88	6860	inactive
56	DAPK2 (death associated protein kinase 2)	0.21	migration z between -2 and 2; enough cells	0.84	4774	inactive
57	UTS2B (urotensin 2B)	1.63	migration z between -2 and 2; enough cells	1.31	3976	inactive
